In paper PMC4899731:
Results are given in words; binding and its absence hold for the method and conditions named. Binding seen in cells or lysates may run through a third protein. Some binding calls cover weakened binding; strength is not graded here.

Protein sequences, listed by entry. Tags and fused reporters are not part of them. Lines headed by an entry give the natural chain unless they say otherwise; changes in a name come on top. Chains listed by the source or under a name are the forms on record and can include a tag or linker.
UniProt P20248: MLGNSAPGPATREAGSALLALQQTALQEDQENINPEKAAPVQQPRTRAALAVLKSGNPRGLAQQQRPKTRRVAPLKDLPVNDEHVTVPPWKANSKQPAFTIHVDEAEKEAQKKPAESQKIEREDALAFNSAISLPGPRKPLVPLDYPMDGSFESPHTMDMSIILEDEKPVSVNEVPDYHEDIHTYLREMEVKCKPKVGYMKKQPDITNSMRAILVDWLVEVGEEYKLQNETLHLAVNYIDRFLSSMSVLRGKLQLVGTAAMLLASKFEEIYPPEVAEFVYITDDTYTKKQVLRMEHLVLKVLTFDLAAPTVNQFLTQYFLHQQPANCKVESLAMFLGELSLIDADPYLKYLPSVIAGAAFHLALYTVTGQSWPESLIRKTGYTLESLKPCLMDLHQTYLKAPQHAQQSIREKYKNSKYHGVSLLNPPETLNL
UniProt P61586: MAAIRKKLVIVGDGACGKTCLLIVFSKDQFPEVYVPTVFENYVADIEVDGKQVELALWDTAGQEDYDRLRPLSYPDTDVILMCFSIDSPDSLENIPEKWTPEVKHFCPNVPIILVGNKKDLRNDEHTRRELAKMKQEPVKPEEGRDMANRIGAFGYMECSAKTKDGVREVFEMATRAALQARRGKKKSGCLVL
RhoA-V14-EGFP (constitutively active mutant form of RhoA) (P61586, form named): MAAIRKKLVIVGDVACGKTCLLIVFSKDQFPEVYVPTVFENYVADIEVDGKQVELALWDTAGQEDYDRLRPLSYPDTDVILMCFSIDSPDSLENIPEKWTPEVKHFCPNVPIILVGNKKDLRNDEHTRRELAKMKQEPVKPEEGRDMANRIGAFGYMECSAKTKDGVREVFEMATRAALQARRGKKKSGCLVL

Molecular target: cyclin A2-mCherry (human) (UniProt P20248)
Assay: FRET or BRET; FRET measured by FLIM (EGFP lifetime, two-photon excitation) in live mitotic MCF-7 cells, synchronised and microinjected with the vectors

binding: binds
Substance: RhoA-V14-EGFP (constitutively active mutant form of RhoA) (from UniProt P61586 1-193)
